Reference: the supplement of paper PMC10849652
This is one part of the list.

Amino acid sequences for entries named in this document (tags omitted). A change or cut given only in a name is not applied to a line headed by its entry.
UniProt Q9HB90, whole entry, looked up: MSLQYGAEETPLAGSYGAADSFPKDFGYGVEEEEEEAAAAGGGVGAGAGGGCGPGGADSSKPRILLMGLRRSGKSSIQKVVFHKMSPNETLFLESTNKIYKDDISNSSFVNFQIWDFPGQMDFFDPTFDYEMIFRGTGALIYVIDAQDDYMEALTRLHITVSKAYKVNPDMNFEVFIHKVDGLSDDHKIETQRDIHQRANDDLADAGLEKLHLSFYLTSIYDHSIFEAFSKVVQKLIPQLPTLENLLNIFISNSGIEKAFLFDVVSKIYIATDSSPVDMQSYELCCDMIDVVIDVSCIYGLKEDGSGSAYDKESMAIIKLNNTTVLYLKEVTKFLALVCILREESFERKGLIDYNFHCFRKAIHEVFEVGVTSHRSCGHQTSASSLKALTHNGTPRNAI
UniProt P78346: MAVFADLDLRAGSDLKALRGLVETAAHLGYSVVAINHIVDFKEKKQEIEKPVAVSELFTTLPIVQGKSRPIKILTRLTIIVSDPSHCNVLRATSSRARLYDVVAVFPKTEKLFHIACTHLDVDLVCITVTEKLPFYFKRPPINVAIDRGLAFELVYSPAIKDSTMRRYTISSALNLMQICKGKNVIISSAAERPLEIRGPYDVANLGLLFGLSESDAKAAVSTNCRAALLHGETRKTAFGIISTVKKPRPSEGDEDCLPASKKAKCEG
UniProt Q15418, whole entry, looked up: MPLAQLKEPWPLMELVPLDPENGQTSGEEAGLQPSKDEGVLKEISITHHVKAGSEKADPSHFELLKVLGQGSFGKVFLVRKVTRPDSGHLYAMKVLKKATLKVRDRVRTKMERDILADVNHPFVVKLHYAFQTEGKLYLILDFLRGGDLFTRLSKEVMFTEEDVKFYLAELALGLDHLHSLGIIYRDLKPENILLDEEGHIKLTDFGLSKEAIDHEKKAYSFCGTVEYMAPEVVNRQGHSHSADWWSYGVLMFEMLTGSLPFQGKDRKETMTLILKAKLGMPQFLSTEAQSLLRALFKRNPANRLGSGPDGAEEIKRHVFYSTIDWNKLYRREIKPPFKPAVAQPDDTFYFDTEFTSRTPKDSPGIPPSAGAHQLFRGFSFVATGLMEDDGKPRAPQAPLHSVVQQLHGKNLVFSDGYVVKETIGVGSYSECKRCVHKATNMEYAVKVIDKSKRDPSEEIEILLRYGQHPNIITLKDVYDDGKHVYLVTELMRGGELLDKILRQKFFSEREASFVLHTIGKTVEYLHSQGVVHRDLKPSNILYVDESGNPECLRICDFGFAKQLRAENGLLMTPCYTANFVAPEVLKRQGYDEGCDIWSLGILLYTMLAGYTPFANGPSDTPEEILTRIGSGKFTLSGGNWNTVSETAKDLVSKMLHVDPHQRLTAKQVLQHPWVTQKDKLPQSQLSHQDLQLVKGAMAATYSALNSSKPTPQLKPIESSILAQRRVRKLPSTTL
UniProt Q9BUL9: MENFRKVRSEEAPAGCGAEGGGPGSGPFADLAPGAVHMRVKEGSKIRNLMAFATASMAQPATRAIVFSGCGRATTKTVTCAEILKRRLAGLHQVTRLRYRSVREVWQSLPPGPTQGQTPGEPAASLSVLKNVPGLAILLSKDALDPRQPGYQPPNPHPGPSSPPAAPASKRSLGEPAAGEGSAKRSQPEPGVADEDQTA
UniProt Q7LG56, whole entry, looked up: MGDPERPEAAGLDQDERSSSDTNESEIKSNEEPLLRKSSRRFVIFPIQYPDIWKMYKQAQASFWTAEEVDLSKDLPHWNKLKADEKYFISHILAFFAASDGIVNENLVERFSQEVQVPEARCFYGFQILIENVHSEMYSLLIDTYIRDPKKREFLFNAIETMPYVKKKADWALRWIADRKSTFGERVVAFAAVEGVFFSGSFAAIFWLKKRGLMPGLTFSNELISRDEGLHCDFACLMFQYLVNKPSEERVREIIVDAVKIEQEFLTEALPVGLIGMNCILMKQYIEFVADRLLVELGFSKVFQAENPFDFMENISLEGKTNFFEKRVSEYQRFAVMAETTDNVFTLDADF
UniProt P10301: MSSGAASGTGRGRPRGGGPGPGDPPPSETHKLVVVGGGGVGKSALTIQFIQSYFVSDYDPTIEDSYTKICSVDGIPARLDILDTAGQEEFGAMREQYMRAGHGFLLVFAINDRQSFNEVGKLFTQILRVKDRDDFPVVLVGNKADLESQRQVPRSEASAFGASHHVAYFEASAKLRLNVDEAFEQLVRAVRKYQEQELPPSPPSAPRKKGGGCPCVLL
UniProt Q8IZ73: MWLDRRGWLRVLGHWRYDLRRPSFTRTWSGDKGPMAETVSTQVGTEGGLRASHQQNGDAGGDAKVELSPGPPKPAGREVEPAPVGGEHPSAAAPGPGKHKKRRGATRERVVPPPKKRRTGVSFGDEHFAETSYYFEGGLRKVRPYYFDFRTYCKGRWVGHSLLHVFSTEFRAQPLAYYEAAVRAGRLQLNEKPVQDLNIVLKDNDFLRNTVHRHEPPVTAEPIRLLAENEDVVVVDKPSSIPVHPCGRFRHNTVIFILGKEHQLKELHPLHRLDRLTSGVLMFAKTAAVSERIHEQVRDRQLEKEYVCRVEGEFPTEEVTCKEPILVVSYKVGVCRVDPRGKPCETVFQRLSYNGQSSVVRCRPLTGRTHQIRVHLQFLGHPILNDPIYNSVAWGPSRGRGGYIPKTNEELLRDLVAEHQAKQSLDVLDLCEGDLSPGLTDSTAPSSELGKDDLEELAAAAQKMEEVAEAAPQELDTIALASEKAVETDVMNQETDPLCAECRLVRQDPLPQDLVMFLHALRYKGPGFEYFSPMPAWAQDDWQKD
UniProt Q92622: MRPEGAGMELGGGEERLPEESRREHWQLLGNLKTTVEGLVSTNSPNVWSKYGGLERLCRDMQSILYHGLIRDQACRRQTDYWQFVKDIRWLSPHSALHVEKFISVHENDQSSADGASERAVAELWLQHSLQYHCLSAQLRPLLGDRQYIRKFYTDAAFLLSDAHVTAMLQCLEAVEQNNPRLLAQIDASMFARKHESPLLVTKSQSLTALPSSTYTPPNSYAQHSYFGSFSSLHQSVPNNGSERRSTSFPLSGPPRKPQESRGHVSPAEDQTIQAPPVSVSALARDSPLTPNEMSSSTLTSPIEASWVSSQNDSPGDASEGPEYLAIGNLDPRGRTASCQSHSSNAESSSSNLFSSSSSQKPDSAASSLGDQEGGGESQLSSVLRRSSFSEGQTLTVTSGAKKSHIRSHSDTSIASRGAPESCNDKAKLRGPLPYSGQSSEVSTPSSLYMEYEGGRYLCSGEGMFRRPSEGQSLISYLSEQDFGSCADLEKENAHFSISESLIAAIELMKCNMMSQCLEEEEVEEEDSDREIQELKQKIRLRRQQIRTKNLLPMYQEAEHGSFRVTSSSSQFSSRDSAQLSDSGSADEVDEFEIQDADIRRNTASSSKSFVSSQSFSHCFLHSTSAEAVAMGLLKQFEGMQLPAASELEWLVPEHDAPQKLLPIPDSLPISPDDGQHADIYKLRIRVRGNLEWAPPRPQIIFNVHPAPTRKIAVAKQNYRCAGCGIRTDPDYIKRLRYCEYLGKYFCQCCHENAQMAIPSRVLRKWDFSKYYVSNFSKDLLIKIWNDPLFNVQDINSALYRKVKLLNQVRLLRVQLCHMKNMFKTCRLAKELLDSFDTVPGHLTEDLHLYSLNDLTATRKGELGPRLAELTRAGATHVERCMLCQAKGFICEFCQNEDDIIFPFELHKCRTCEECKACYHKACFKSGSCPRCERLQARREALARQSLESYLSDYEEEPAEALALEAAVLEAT
UniProt Q9H633: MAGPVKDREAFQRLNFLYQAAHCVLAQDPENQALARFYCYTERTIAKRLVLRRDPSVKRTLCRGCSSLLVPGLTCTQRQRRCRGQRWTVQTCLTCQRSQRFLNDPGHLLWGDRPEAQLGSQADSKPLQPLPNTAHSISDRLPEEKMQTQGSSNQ

Experiments:
Assay in all cases: log2 fold change, soluble protein after heating vs DMSO (PISA); higher = thermal stabilisation; K562 lysate, 10 uM; active = over 0.2 and 3.5 SD of the protein, either way, in both replicates (recomputed)
vemurafenib = compound: CCCS(=O)(=O)Nc1ccc(F)c(C(=O)c2c[nH]c3ncc(-c4ccc(Cl)cc4)cc23)c1F [vemurafenib]
In short: (§1)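 Thermal stability, expressed as log-two fold change relative to solvent controls, is given from duplicates. Crude K562 extract in PBS pH 7.4 with 1 mM MgCl2, at 1 mg/mL protein, was treated with 10 μM compound for 30 min and heated in aliquots for 3 min across 48°C-58°C. After pooling, adjustment to 0.5% NP-40 at 4°C and centrifugation at 21,000xg for 90 min, supernatant protein was measured by TMTpro 16plex LC-MS/MS with channel sums equalised.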

[1] = compound: CCCS(=O)(=O)Nc1ccc(F)c(C(=O)c2c[nH]c3ncc(Cl)cc23)c1F
In short: as §1

barasertib = compound: CCN(CCCOc1ccc2c(Nc3cc(CC(=O)Nc4cccc(F)c4)[nH]n3)ncnc2c1)CCOP(=O)(O)O [barasertib]
In short: as §1

[2] = compound: CC[C@@H]1C(=O)N(C)c2cnc(Nc3ccc(C(=O)NC4CCN(C)CC4)cc3OC)nc2N1C1CCCC1
In short: as §1

volasertib = compound: CC[C@@H]1C(=O)N(C)c2cnc(Nc3ccc(C(=O)N[C@H]4CC[C@H](N5CCN(CC6CC6)CC5)CC4)cc3OC)nc2N1C(C)C [volasertib]
In short: as §1

[3] = compound: CCn1c(C(=O)N(C2CC2)C2CC2)cc2c3c(ncn3C)c(Nc3cc(C)n(C)n3)nc21
In short: as §1

[4] = compound: CCn1cc(-c2ccnc3[nH]c(-c4cccc(CN(C)C)c4)cc23)c(-c2ccc(NC(=O)N(C)C)cc2)n1
In short: as §1

[5] = compound: CN1CCC(CNc2ccc3ncc(-c4cccc(OC(F)(F)F)c4)n3n2)CC1
In short: as §1

saracatinib = compound: CN1CCN(CCOc2cc(OC3CCOCC3)c3c(Nc4c(Cl)ccc5c4OCO5)ncnc3c2)CC1 [saracatinib]
In short: as §1

sotrastaurin = compound: CN1CCN(c2nc(C3=C(c4c[nH]c5ccccc45)C(=O)NC3=O)c3ccccc3n2)CC1 [sotrastaurin]
In short: as §1

alvocidib = compound: CN1CC[C@H](c2c(O)cc(O)c3c(=O)cc(-c4ccccc4Cl)oc23)[C@H](O)C1 [alvocidib]
In short: as §1

Tubastatin A = compound: CN1CCc2c(c3ccccc3n2Cc2ccc(C(=O)NO)cc2)C1 [Tubastatin A]
In short: as §1

[6] = compound: CNC(=O)C1=CC=CC=C1NC2=NC(=NC=C2Cl)NC3=C(C=C(C=C3)N4CCOCC4)OC
In short: as §1

defactinib = compound: CNC(=O)c1ccc(Nc2ncc(C(F)(F)F)c(NCc3nccnc3N(C)S(C)(=O)=O)n2)cc1 [defactinib]
In short: as §1

[7] = compound: CNc1nc(-c2ccc3c(N)n[nH]c3c2)cc(N2C[C@@H](C(=O)NC3CCCCC3)CC[C@H]2C)n1
In short: as §1

encorafenib = compound: COC(=O)N[C@@H](C)CNc1nccc(-c2cn(C(C)C)nc2-c2cc(Cl)cc(NS(C)(=O)=O)c2F)n1 [encorafenib]
In short: as §1

[8] = compound: COC(=O)[C@H](CCSC)NC(=O)C1=C(C=C(C=C1)NC[C@H](CS)N)C2=CC=CC=C2
In short: as §1

alisertib = compound: COc1cc(Nc2ncc3c(n2)-c2ccc(Cl)cc2C(c2c(F)cccc2OC)=NC3)ccc1C(=O)O [alisertib]
In short: as §1

[9] = compound: COc1cc2nc(-c3cc(F)ccc3O)nc(N[C@@H]3CNC[C@H]3C(C)(C)O)c2cc1OC
In short: as §1

gefitinib = compound: COc1cc2ncnc(Nc3ccc(F)c(Cl)c3)c2cc1OCCCN1CCOCC1 [gefitinib]
In short: as §1

Target | log2 fold change (vemurafenib) | log2 fold change [1] | log2 fold change (barasertib) | log2 fold change [2] | log2 fold change (volasertib) | log2 fold change [3] | log2 fold change [4] | log2 fold change [5] | log2 fold change (saracatinib) | log2 fold change (sotrastaurin) | log2 fold change (alvocidib) | log2 fold change (Tubastatin A) | log2 fold change [6] | log2 fold change (defactinib) | log2 fold change [7] | log2 fold change (encorafenib) | log2 fold change [8] | log2 fold change (alisertib) | log2 fold change [9] | log2 fold change (gefitinib)
RRAGC (UniProt Q9HB90) | inactive: 0.02 | inactive: -0.002 | inactive: 0 | inactive: 0.019 | inactive: -0.001 | inactive: -0.04 | inactive: -0.052 | inactive: 0.115 | inactive: 0.008 | inactive: -0.018 | inactive: 0.003 | inactive: 0.068 | inactive: 0.017 | inactive: -0.014 | inactive: -0.02 | inactive: -0.004 | inactive: -0.028 | inactive: 0.02 | inactive: 0.016 | inactive: 0.028
RPP30 isoform 2 (UniProt P78346) | inactive: 0.016 | inactive: -0.003 | inactive: 0.001 | inactive: 0.016 | inactive: 0.015 | inactive: -0.001 | inactive: -0.004 | inactive: 0.03 | inactive: 0 | inactive: -0.022 | inactive: -0.02 | inactive: -0.003 | inactive: 0.014 | inactive: -0.036 | inactive: 0.028 | inactive: -0.018 | inactive: -0.035 | inactive: 0.003 | inactive: 0.014 | inactive: 0.004
RPS6KA1 (UniProt Q15418) | inactive: -0.037 | inactive: -0.004 | inactive: -0.006 | inactive: 0.037 | inactive: 0.029 | inactive: 0.019 | inactive: -0.004 | inactive: 0.116 | inactive: 0.101 | inactive: 0.103 | active: 0.447 | inactive: -0.194 | active: 0.758 | inactive: 0.236 | inactive: -0.007 | inactive: -0.121 | inactive: -0.002 | inactive: 0.012 | inactive: 0.165 | inactive: -0.007
RPS25 (UniProt P62851) | inactive: -0.001 | inactive: -0.011 | inactive: -0.042 | inactive: -0.004 | inactive: -0.005 | inactive: -0.015 | inactive: -0.078 | inactive: 0.033 | inactive: 0.015 | inactive: -0.016 | inactive: 0.02 | inactive: 0.034 | inactive: -0.003 | inactive: -0.022 | inactive: 0.034 | inactive: -0.039 | inactive: 0.027 | inactive: -0.001 | inactive: 0.007 | inactive: -0.007
RPP25 (UniProt Q9BUL9) | inactive: -0.077 | inactive: -0.057 | inactive: 0.165 | inactive: 0.085 | inactive: 0.028 | inactive: 0.035 | inactive: -0.036 | inactive: 0.035 | inactive: 0.004 | inactive: -0.025 | inactive: 0.015 | inactive: 0.039 | inactive: 0.021 | inactive: 0.073 | inactive: 0.07 | inactive: -0.032 | inactive: -0.24 | inactive: -0.181 | inactive: -0.022 | inactive: 0.067
RRM2B isoform 6 (UniProt Q7LG56) | inactive: 0.028 | inactive: 0.017 | inactive: -0.017 | inactive: 0.057 | inactive: 0.024 | inactive: -0.022 | inactive: 0.005 | inactive: 0.055 | inactive: -0.016 | inactive: 0.026 | inactive: 0.001 | inactive: 0.055 | inactive: 0.036 | inactive: -0.002 | inactive: 0.038 | inactive: 0.008 | inactive: -0.047 | inactive: 0.021 | inactive: 0.001 | inactive: -0.008
RRAS (UniProt P10301) | inactive: -0.026 | inactive: -0.033 | inactive: 0.11 | inactive: 0.011 | inactive: -0.017 | inactive: -0.031 | inactive: -0.005 | inactive: 0.056 | inactive: -0.01 | inactive: 0.015 | inactive: -0.006 | inactive: 0.031 | inactive: 0.015 | inactive: -0.009 | inactive: -0.065 | inactive: -0.017 | inactive: 0.024 | inactive: 0.004 | inactive: 0.033 | inactive: 0.003
RPS6 (UniProt P62753) | inactive: 0.006 | inactive: -0.027 | inactive: -0.008 | inactive: 0.021 | inactive: 0.01 | inactive: -0.047 | inactive: -0.126 | inactive: 0.022 | inactive: -0.002 | inactive: 0.018 | inactive: -0.035 | inactive: 0.026 | inactive: -0.058 | inactive: 0.007 | inactive: 0.025 | inactive: -0.018 | inactive: 0.014 | inactive: 0.019 | inactive: -0.01 | inactive: 0.004
RPL37 (UniProt P61927) | inactive: -0.018 | inactive: 0.044 | inactive: -0.026 | inactive: 0.113 | inactive: 0.007 | inactive: 0.018 | inactive: 0.04 | inactive: -0.031 | inactive: 0.005 | inactive: -0.077 | inactive: 0.007 | inactive: 0.031 | inactive: -0.091 | inactive: 0.077 | inactive: 0.051 | inactive: -0.003 | inactive: 0.02 | inactive: 0.005 | inactive: -0.011 | inactive: -0.037
RPL7L1 (UniProt Q6DKI1) | inactive: 0.045 | inactive: 0.008 | inactive: 0.001 | inactive: -0.046 | inactive: -0.035 | inactive: 0.033 | inactive: -0.049 | inactive: -0.02 | inactive: -0.039 | inactive: 0.014 | inactive: 0.007 | inactive: -0.008 | inactive: 0.005 | inactive: -0.026 | inactive: 0.065 | inactive: 0.004 | inactive: 0.044 | inactive: -0.015 | inactive: 0.02 | inactive: -0.006
RPLP0 (UniProt P05388) | inactive: 0.011 | inactive: -0.018 | inactive: -0.027 | inactive: -0.004 | inactive: -0.009 | inactive: 0.024 | inactive: -0.036 | inactive: 0.034 | inactive: -0.01 | inactive: -0.046 | inactive: 0.034 | inactive: 0.017 | inactive: -0.026 | inactive: -0.007 | inactive: 0.049 | inactive: 0.008 | inactive: 0.016 | inactive: 0.028 | inactive: -0.006 | inactive: 0.004
RPUSD2 (UniProt Q8IZ73) | inactive: 0.011 | inactive: 0.021 | inactive: 0 | inactive: -0.003 | inactive: -0.004 | inactive: -0.007 | inactive: -0.074 | inactive: 0.04 | inactive: 0.013 | inactive: 0.002 | inactive: 0.011 | inactive: 0.02 | inactive: 0.029 | inactive: -0.018 | inactive: 0.065 | inactive: -0.039 | inactive: 0.095 | inactive: -0.007 | inactive: 0.007 | inactive: -0.015
RPS26P11 (UniProt Q5JNZ5) | inactive: 0.012 | inactive: -0.01 | inactive: -0.03 | inactive: 0.041 | inactive: 0.017 | inactive: 0.02 | active: -0.688 | inactive: 0.224 | inactive: 0.009 | inactive: 0.05 | inactive: -0.216 | inactive: 0.038 | inactive: -0.064 | inactive: 0.011 | inactive: 0.02 | inactive: 0.007 | inactive: 0.006 | inactive: -0.006 | inactive: -0.032 | inactive: -0.056
RUBCN (UniProt Q92622) | inactive: 0.069 | inactive: 0.091 | inactive: 0.102 | inactive: 0.235 | inactive: -0.14 | inactive: 0.014 | inactive: 0.01 | inactive: 0.063 | inactive: -0.026 | inactive: -0.022 | inactive: -0.133 | inactive: 0.08 | inactive: 0.072 | inactive: 0.021 | inactive: 0.067 | inactive: -0.099 | inactive: 0.054 | inactive: 0.015 | inactive: 0 | inactive: -0.023
RPP21 isoform 4 (UniProt Q9H633) | inactive: -0.005 | inactive: -0.023 | inactive: -0.026 | inactive: 0.026 | inactive: 0.041 | inactive: -0.008 | inactive: -0.189 | inactive: 0.151 | inactive: -0.006 | inactive: 0.142 | inactive: -0.033 | inactive: 0.071 | inactive: -0.028 | inactive: 0.082 | inactive: 0.055 | inactive: -0.07 | inactive: 0.031 | inactive: -0.155 | inactive: 0.059 | inactive: -0.016
RPL36AL (UniProt Q969Q0) | inactive: -0.039 | inactive: 0.012 | inactive: -0.009 | inactive: -0.04 | inactive: -0.013 | inactive: 0.076 | inactive: -0.076 | inactive: -0.004 | inactive: -0.091 | inactive: -0.032 | inactive: 0.055 | inactive: -0.056 | inactive: 0.023 | inactive: 0.026 | active: -0.243 | inactive: 0.03 | inactive: -0.08 | inactive: -0.057 | inactive: -0.029 | inactive: -0.07

Quoted at random: two records from the list.
Target | log2 fold change (vemurafenib) | log2 fold change [1] | log2 fold change (barasertib) | log2 fold change [2] | log2 fold change (volasertib) | log2 fold change [3] | log2 fold change [4] | log2 fold change [5] | log2 fold change (saracatinib) | log2 fold change (sotrastaurin) | log2 fold change (alvocidib) | log2 fold change (Tubastatin A) | log2 fold change [6] | log2 fold change (defactinib) | log2 fold change [7] | log2 fold change (encorafenib) | log2 fold change [8] | log2 fold change (alisertib) | log2 fold change [9] | log2 fold change (gefitinib)
RRAS (UniProt P10301) | inactive: -0.026 | inactive: -0.033 | inactive: 0.11 | inactive: 0.011 | inactive: -0.017 | inactive: -0.031 | inactive: -0.005 | inactive: 0.056 | inactive: -0.01 | inactive: 0.015 | inactive: -0.006 | inactive: 0.031 | inactive: 0.015 | inactive: -0.009 | inactive: -0.065 | inactive: -0.017 | inactive: 0.024 | inactive: 0.004 | inactive: 0.033 | inactive: 0.003
RPP30 isoform 2 (UniProt P78346) | inactive: 0.016 | inactive: -0.003 | inactive: 0.001 | inactive: 0.016 | inactive: 0.015 | inactive: -0.001 | inactive: -0.004 | inactive: 0.03 | inactive: 0 | inactive: -0.022 | inactive: -0.02 | inactive: -0.003 | inactive: 0.014 | inactive: -0.036 | inactive: 0.028 | inactive: -0.018 | inactive: -0.035 | inactive: 0.003 | inactive: 0.014 | inactive: 0.004
